In all, about 400,000 compounds went through this assay and about 5,500 (1.4%) were called active. Inconclusive results, whose numbers are uncertain, are shown with a selection of clear calls. Calls come from the whole dose curve; as a rule, active = well fitted cell-killing curve with a large enough effect; inconclusive = small, poorly fitted or top-dose-only effect, or effect the other way; inactive = flat fitted curve, though single readings scatter. A potency beside an inconclusive call is a rough fit, not a confirmed value.
Assay: qHTS assay for MDR1-selective chemotherapeutics: Primary screen using the parental adenocarcinoma cell KB-3-1; note: nearly all actives have a fitted effect of over 60% in size
Conditions: KB-3-1 viability, CellTiter-Glo ATP luminescence, 72 h; activity change, negative = cytotoxic: at 46.1 µM (top of the series)
Outline: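 Viability of parental KB-3-1 cells, measured by CellTiter-Glo luminescence, followed a 72 h incubation at 37 °C with pinned compounds in phenol-red-free DMEM containing 10% FBS.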
% is set by controls: 0 for no effect and ±100 for the full control effect; potency is the fitted concentration of half-maximal effect.

Structure (SMILES) | Potency | activity change, negative = cytotoxic
CCc1c(C)sc(NC(=O)C2CCCCC2C(=O)O)c1C(N)=O (stereo not given) | inconclusive: 32.6 µM [rising, single point] | –
C(=C\c1ccnc2ccccc12)/c1ccc(N2CCOCC2)cc1 | inconclusive: 29.1 µM [cytotoxic, partial curve, poor fit] | –
C[n+]1ccc(/C=C/c2cc[n+](C)c3ccccc23)c2ccccc21 | – | inconclusive: -91.9%
CCOc1ccc(C(=O)NC(=S)Nc2ncccc2C)cc1[N+](=O)[O-] | inconclusive: 20.6 µM [cytotoxic, single point] | –
O=C(Nc1ccc(N2CCOCC2)c(S(=O)(=O)Nc2ccccc2Cl)c1)c1ccc(=O)[nH]n1 | inconclusive: 18.4 µM [cytotoxic, partial curve, poor fit] | –
CCS(=O)(=O)n1c(Cc2cccs2)nc2ccccc21 | inconclusive: 0.0731 µM [rising, full curve] | –
CCC1CN(C(=O)N2CCC(C(=O)Nc3ccccc3OC)CC2)c2ccccc2O1 (stereo not given) | inactive | –
CCCCCCCCN1C(=O)[C@H](CC(=O)NCC2CCCCC2)C[C@@]2(C(=O)OC)CCCCC=C12 | inconclusive: 18.4 µM [cytotoxic, single point] | –
CCN(CC(=O)Nc1c(Cl)cccc1Cl)C(=O)C1CCN(c2ncnc3sc(C)c(C)c23)CC1 | inactive | –
CC(=O)N1CCSc2ccc(S(=O)(=O)Nc3cccc(C)c3)cc21 | inactive | –
COc1cc(/C=C2/SC(=Nc3ccc(O)cc3)NC2=O)cc(OC)c1O | inconclusive: 20.6 µM [cytotoxic, single point] | –
COc1ccc2oc(C(=O)Nc3ccccn3)c(C)c2c1 | inconclusive: 29.1 µM [cytotoxic, single point] | –
CCC1CCCCN1S(=O)(=O)c1ccc(S(=O)(=O)N(Cc2ccccn2)CC2CCCO2)cc1 (stereo not given) | inactive | –
CCc1nn2c(=O)cc(COC(=O)c3ccccc3)nc2s1 | inactive | –
NS(=O)(=O)c1ccc(NC(=O)Nc2cccc(Cl)c2)cc1 | – | inconclusive: 20.9%
COCCn1c(SCC(=O)Nc2c(C)n(C)n(-c3ccccc3)c2=O)nnc1-c1ccncc1 | inactive | –
COc1ccc(C)cc1NC(=O)C1CCCN(c2ncnc3onc(C)c23)C1 (stereo not given) | inactive | –
O=C(NCCCNC(=O)c1ccc(Cl)cc1Cl)c1ccccn1 | inconclusive: 18.4 µM [rising, single point] | –
COc1ccc(C(=O)Nc2cccc(-c3nnc(-c4ccco4)o3)c2)cc1 | inconclusive: 29.1 µM [cytotoxic, single point] | –
CCCCc1c(O)nc(SCC(=O)NC(C)(C)C)n(-c2ccccc2C)c1=O | inactive | –

Complete entries as entered above. Values in the order: Potency | activity change, negative = cytotoxic
CCCCc1c(O)nc(SCC(=O)NC(C)(C)C)n(-c2ccccc2C)c1=O is listed as inactive | –
CC(=O)N1CCSc2ccc(S(=O)(=O)Nc3cccc(C)c3)cc21 is listed as inactive | –
